Data source: PubChem BioAssay AID504774 (Drosophila RNAi Screening Center, 2011)
The deposit covers about 23,000 reagents; below is a random part of those that have a named target and a result. 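Values are quantile-normalised luminescence on an arbitrary scale; higher means more cells surviving MMS.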 Not all columns of the deposit are shown.

Test: 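Knock-downs that shift viability of MMS-exposed cells relative to untreated ones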 (primary screen)
Cell system: Drosophila Kc167 cells
Reagent: long dsRNA against Drosophila genes, about 0.25 µg dsRNA per well
Timing: about 6 days: 3 days knock-down, then 3 days with or without MMS
Conditions: methyl methanesulphonate 0.004% (w/v) for 3 days after knock-down
Measurement: 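ATP-dependent luminescence as a measure of live cells in MMS-exposed wells, quantile normalised within each plate, with replicate values also given as a mean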
Direction: mean viability with MMS and viability with MMS: higher = more surviving cells after MMS

What is on record for CG3868 [DRSC10380]?
mean viability with MMS: 3.65e6; viability with MMS, replicate 1: 4.18e6

With Ppa (Partner of paired) [DRSC04598], what was measured?
mean viability with MMS: 3.80e6; viability with MMS, replicate 1: 4.25e6

With CG3939 [DRSC18498], what was measured?
mean viability with MMS: 3.45e6; viability with MMS, replicate 1: 3.85e6

For CG44774 [DRSC18342], how do the results read?
mean viability with MMS: 3.49e6; viability with MMS, replicate 1: 4.11e6

With CG12426 [DRSC14516], what was measured?
mean viability with MMS: 3.71e6; viability with MMS, replicate 1: 4.14e6

What is on record for CG30039 [DRSC21794]?
mean viability with MMS: 3.40e6; viability with MMS, replicate 1: 3.91e6

What is on record for mael (maelstrom) [DRSC11894]?
mean viability with MMS: 3.64e6; viability with MMS, replicate 1: 4.09e6

With CG5776 [DRSC02891], how do the results read?
mean viability with MMS: 3.80e6; viability with MMS, replicate 1: 4.27e6

What is on record for CG6044 [DRSC04522]?
mean viability with MMS: 3.59e6; viability with MMS, replicate 1: 4.04e6

For Polr3I (RNA polymerase III subunit I) [DRSC19922], what does the deposit list?
mean viability with MMS: 3.46e6; viability with MMS, replicate 1: 3.92e6

For CG6013 [DRSC15947], what was measured?
mean viability with MMS: 3.75e6; viability with MMS, replicate 1: 4.21e6

For Obp56b (Odorant-binding protein 56b) [DRSC06551], how do the results read?
mean viability with MMS: 3.39e6; viability with MMS, replicate 1: 3.83e6

Which result is listed for CG4998 [DRSC10466]?
mean viability with MMS: 3.64e6; viability with MMS, replicate 1: 4.12e6

Which result is listed for CG4998 [DRSC22911]?
mean viability with MMS: 3.53e6; viability with MMS, replicate 1: 4.01e6

Which result is listed for LSm7 (Like Sm 7) [DRSC02251]?
mean viability with MMS: 3.44e6; viability with MMS, replicate 1: 3.90e6

How did the screen score Eig71Ef (Ecdysone-induced gene 71Ef) [DRSC11153]?
mean viability with MMS: 3.48e6; viability with MMS, replicate 1: 3.92e6

Which result is listed for Ice1 (Interacts with the C terminus of ELL 1) [DRSC04191]?
mean viability with MMS: 3.05e6; viability with MMS, replicate 1: 3.53e6

With CG3216 [DRSC04347], what was measured?
mean viability with MMS: 3.43e6; viability with MMS, replicate 1: 3.97e6

For dob (doppelganger von brummer) [DRSC19948], what was measured?
mean viability with MMS: 3.76e6; viability with MMS, replicate 1: 4.27e6

For Panx (Panoramix) [DRSC04563], how do the results read?
mean viability with MMS: 3.60e6; viability with MMS, replicate 1: 4.15e6

Which result is listed for Obp56i (Odorant-binding protein 56i) [DRSC05812]?
mean viability with MMS: 3.53e6; viability with MMS, replicate 1: 4.08e6

For CG13058 [DRSC09941], how do the results read?
mean viability with MMS: 3.54e6; viability with MMS, replicate 1: 4.01e6

With Rrp5 (Ribosomal RNA Processing 5) [DRSC15862], how do the results read?
mean viability with MMS: 3.54e6; viability with MMS, replicate 1: 3.99e6

How did the screen score CG10516 [DRSC09738]?
mean viability with MMS: 3.72e6; viability with MMS, replicate 1: 4.16e6

2 entries already listed, sorted by “mean viability with MMS”, high to low.
Ppa (Partner of paired) [DRSC04598] | mean viability with MMS: 3.80e6; viability with MMS, replicate 1: 4.25e6
CG3939 [DRSC18498] | mean viability with MMS: 3.45e6; viability with MMS, replicate 1: 3.85e6
